In patent US20190352367A1:
Results are given in words; binding and its absence hold for the method and conditions named. Some binding calls cover weakened binding; strength is not graded here.

The chains behind the UniProt entries cited, without tags or fusion partners.
UniProt Q05397: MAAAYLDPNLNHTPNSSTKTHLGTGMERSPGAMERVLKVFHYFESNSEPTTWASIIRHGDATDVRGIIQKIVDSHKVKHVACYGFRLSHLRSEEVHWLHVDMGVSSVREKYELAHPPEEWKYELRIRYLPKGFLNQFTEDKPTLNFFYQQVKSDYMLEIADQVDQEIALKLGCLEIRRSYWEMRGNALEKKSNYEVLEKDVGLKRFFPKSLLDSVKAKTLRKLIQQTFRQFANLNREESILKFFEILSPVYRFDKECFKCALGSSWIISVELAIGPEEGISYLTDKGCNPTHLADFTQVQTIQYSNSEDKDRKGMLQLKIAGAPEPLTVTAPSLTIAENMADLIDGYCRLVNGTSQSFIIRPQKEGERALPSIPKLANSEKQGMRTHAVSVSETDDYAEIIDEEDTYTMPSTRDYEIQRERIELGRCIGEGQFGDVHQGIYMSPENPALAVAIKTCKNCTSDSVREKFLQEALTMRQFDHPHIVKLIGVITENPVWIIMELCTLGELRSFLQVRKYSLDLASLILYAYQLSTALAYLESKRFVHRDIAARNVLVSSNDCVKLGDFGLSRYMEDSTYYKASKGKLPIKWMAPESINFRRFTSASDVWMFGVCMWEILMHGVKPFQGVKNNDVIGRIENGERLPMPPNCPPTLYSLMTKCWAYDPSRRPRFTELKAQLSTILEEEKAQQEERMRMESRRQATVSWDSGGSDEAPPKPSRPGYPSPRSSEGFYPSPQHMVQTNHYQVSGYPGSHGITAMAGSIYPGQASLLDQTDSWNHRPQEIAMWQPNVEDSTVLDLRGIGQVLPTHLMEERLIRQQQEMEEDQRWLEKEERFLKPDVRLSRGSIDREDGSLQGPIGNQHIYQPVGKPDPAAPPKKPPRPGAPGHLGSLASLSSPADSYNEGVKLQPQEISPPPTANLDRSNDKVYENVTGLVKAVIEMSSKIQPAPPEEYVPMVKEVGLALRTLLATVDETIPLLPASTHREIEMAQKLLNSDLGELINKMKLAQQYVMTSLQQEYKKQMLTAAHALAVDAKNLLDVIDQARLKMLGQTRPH
UniProt Q9H9S0: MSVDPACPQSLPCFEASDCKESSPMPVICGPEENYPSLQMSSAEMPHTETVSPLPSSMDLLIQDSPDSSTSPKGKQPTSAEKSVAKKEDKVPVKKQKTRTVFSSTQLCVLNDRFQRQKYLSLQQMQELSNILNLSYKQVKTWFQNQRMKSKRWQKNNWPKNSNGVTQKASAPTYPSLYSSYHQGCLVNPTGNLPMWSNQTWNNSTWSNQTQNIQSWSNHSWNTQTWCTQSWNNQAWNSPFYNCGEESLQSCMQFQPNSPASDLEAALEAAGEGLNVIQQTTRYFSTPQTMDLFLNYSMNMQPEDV

Experiments:
[1] = target: Focal Adhesion Kinase (FAK), SPR ligand (UniProt Q05397); experiment: SPR, Cx26 C-terminal peptide as analyte (1 nM to 100 µM by the legend) over FAK, against buffer control
[2] = target: Focal Adhesion Kinase (FAK), SPR ligand (UniProt Q05397); experiment: SPR, Cx26 peptides 1 nM to 100 µM against buffer control
[3] = target: Nanog transcription factor (NANOG), SPR ligand (UniProt Q9H9S0); experiment: as above
[4] = target: Nanog transcription factor (NANOG), SPR ligand (UniProt Q9H9S0); experiment: SPR, Cx26 C-terminal peptide as analyte (1 nM to 100 µM by the legend) over NANOG, against buffer control

- binding [1]: binds
- binding [2]: binds
- binding [3]: binds
- binding [4]: binds
Binder: RYCSGKSKKPV [Cx26 blocking peptide 5 (C-terminus)]
